PubChem BioAssay AID1159584 | Peter MacCallum Cancer Centre | 2016
Aim: 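Knock-downs that harm CDH1-null cells more than parental MCF10A cells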 (primary screen). System: human MCF10A breast epithelial cells, parental and CDH1-null. Knock-down reagent: siRNA against human genes. Read-out: 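Cell viability by CellTiter-Glo ATP luminescence, each line scaled to the mean of mock wells across plates, then CDH1-null over parental ratio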. Scale: CDH1-null / parental viability ratio: higher = CDH1-null cells survive relatively better than parental; CDH1-null viability vs mock: higher = more viable CDH1-null cells; parental viability vs mock: higher = more viable parental cells.
In all, the deposit lists about 18,000 reagents; shown is an unselected part. No sequences are given here. The record does not give: the amount of reagent, the time to read-out.

| Gene | CDH1-null / parental viability ratio | CDH1-null viability vs mock (fraction of mock) | parental viability vs mock (fraction of mock) |
| --- | --- | --- | --- |
| TMEM53 | 1.31 | 0.97 | 0.74 |
| NRROS | 0.95 | 0.55 | 0.58 |
| PPP1R14C | 1.22 | 0.9 | 0.74 |
| APOH | 0.83 | 0.79 | 0.95 |
| DIS3 | 1.08 | 0.8 | 0.74 |
| LPAL2 | 0.98 | 0.92 | 0.94 |
| XKR6 | 0.89 | 0.5 | 0.56 |
| PON1 | 1.17 | 0.84 | 0.72 |
| KANK3 | 0.83 | 0.58 | 0.7 |
| TIMD4 | 1.02 | 0.82 | 0.8 |
| OMA1 | 1.6 | 0.64 | 0.4 |
| GNL1 | 1.16 | 1.18 | 1.02 |
| MAGEA9 | 1.19 | 1 | 0.84 |
| HNRNPD | 0.96 | 0.73 | 0.76 |
| KIF23 | 0.92 | 0.77 | 0.84 |
| SFMBT2 | 1.23 | 1.08 | 0.88 |
| CITED2 | 1 | 0.83 | 0.83 |
| GRIK3 | 1.24 | 1.04 | 0.84 |
| RIDA | 1.05 | 1.21 | 1.15 |
| KAT5 | 1.16 | 0.51 | 0.44 |
| SPANXA2 | 1.29 | 0.44 | 0.34 |
| CCDC172 | 1.1 | 0.97 | 0.88 |

Individual results from above.
DIS3, CDH1-null viability vs mock (fraction of mock) → 0.8
Value of CITED2 under “CDH1-null viability vs mock (fraction of mock)”: 0.83
For “CDH1-null viability vs mock (fraction of mock)”, HNRNPD reads 0.73
Entry for MAGEA9 in “CDH1-null viability vs mock (fraction of mock)”: 1
For “CDH1-null / parental viability ratio”, GNL1 is entered as 1.16

The results go on.
| Gene | CDH1-null / parental viability ratio | CDH1-null viability vs mock (fraction of mock) | parental viability vs mock (fraction of mock) |
| --- | --- | --- | --- |
| NAIF1 | 1.77 | 0.71 | 0.4 |
| SPRY2 | 0.88 | 0.73 | 0.83 |
| RSL24D1 | 1.23 | 0.64 | 0.52 |
| OLFM3 | 1.02 | 0.92 | 0.9 |
| MUC1 | 1.1 | 0.88 | 0.8 |
| ANKS1A | 1.24 | 0.61 | 0.49 |
| LDB1 | 1.2 | 1.08 | 0.9 |
| COL4A1 | 1.14 | 1 | 0.88 |
| LRRC19 | 0.98 | 0.9 | 0.92 |
| ARLN | 1.19 | 0.51 | 0.43 |
| OR51B2 | 1.28 | 1.01 | 0.79 |
| PPP4R2 | 1.1 | 0.88 | 0.8 |
| TRMT1L | 1.09 | 0.98 | 0.9 |
| WTIP | 1.13 | 0.77 | 0.68 |
| PLCXD2 | 0.9 | 0.78 | 0.87 |
| DRG1 | 1.15 | 0.98 | 0.85 |
| OR7C2 | 0.7 | 0.38 | 0.54 |
| OXER1 | 0.99 | 0.97 | 0.98 |
| CAPG | 0.91 | 0.82 | 0.9 |
| IFNLR1 | 0.9 | 0.72 | 0.8 |
| PALLD | 0.81 | 0.86 | 1.06 |
| HHLA2 | 0.92 | 0.68 | 0.74 |
| UBE2NL | 0.98 | 0.85 | 0.87 |
| CUX1 | 1.05 | 1.03 | 0.98 |
